Test results from patent US20070249620A1, “Urea Derivative” (priority 2004, published 2007).
Some results were stated once for a whole list of compounds, not compound by compound. At least one structure is not confirmed: it was looked up by name or label, or the drawing left a doubt.

target: T1, mouse DGAT1 (Mus musculus, UniProt Q9Z2A7); test: DGAT1 inhibitory effect test (microsome fraction, [14C]-oleoyl-CoA, triglyceride radioactivity by TLC); type: biochemical; conditions: concentration of the test compound 0.1 μg/ml; mouse DGAT1 microsomes, 23° C., 30 minutes
T1 construct: made in house; host or cells: insect cells (High Five, Sf9, Sf21, etc.), baculovirus expression system (Invitrogen)
T1 sequence (Q9Z2A7 1-498): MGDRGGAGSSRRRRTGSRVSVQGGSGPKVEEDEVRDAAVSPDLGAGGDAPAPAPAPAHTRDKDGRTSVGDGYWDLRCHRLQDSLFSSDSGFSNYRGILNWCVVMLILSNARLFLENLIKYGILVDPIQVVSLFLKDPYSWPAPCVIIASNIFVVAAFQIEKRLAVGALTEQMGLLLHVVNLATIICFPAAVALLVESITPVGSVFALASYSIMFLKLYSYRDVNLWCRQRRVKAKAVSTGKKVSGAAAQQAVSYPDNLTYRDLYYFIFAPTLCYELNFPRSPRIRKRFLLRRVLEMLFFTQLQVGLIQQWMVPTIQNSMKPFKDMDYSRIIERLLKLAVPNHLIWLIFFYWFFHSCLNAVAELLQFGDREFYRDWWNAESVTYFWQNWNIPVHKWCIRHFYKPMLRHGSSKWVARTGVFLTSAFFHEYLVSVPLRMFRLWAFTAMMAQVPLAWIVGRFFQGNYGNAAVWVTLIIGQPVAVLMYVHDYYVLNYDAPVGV
Outline: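 Baculovirus-expressed mouse DGAT1 insect-cell microsomes (10 μg) were incubated 30 min at 23 °C, pH 8.0, with 0.5 mM 1,2-dioleoyl-sn-glycerol, 30 μM [14C]-oleoyl-CoA and 0.5% Triton X-100. [14C]-triglyceride was quantified after heptane extraction and TLC. Percent inhibition was taken against vehicle control, with 0-min background subtracted.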

| Compound | Inhibitory ratio [%] |
| --- | --- |
| CCOc1ccc(Cl)cc1NC(=O)Nc1ccc(N2CCN(C(=O)Nc3ccncc3C)CC2)cc1 [Example 418, 4-{4-[3-(5-chloro-2-ethoxy-phenyl)-ureido]-phenyl}-piperazine-1-carboxylic acid(3-methyl-pyridin-4-yl)-amide] | ≥ 50 |
| CCOc1ccccc1NC(=O)Nc1ccc(N2CCN(C(=O)Nc3ncccc3Cl)CC2)cc1 [Example 420, 4-{4-[3-(2-ethoxy-phenyl)-ureido]-phenyl}-piperazine-1-carboxylic acid(3-chloro-pyridin-2-yl)-amide] | ≥ 50 |
| COc1cc(NC(=O)Nc2ccc(N3CCN(C(=O)Nc4ncccc4Cl)CC3)cc2)cc(OC)c1 [Example 421, 4-{4-[3-(3,5-dimethoxy-phenyl)-ureido]-phenyl}-piperazine-1-carboxylic acid(3-chloro-pyridin-2-yl)-amide] | ≥ 50 |
| CCOc1cccc(NC(=O)Nc2ccc(N3CCN(C(=O)Nc4ncccc4Cl)CC3)cc2)c1 [Example 422, 4-{4-[3-(3-ethoxy-phenyl)-ureido]-phenyl}-piperazine-1-carboxylic acid(3-chloro-pyridin-2-yl)-amide] | ≥ 50 |
| COc1c(C)cccc1NC(=O)Nc1ccc(N2CCN(C(=O)Nc3ncccc3Cl)CC2)cc1 [Example 423, 4-{4-[3-(2-methoxy-3-methyl-phenyl)-ureido]-phenyl}-piperazine-1-carboxylic acid(3-chloro-pyridin-2-yl)-amide] | ≥ 50 |
| COc1ccc(C)cc1NC(=O)Nc1ccc(C2CCN(C(=O)Nc3ncccc3Cl)CC2)cc1 [Example 424, 4-{4-[3-(2-methoxy-5-methyl-phenyl)-ureido]-phenyl}-piperidine-1-carboxylic acid(3-chloro-pyridin-2-yl)-amide] | ≥ 50 |
| COc1c(C)cccc1NC(=O)Nc1ccc(N2CCN(C(=O)Nc3ncc(F)cc3F)CC2)cc1 [Example 425, 4-{4-[3-(2-methoxy-3-methyl-phenyl)-ureido]-phenyl}-piperazine-1-carboxylic acid(3,5-difluoro-pyridin-2-yl)-amide] | ≥ 50 |
| COc1c(C)cccc1NC(=O)Nc1ccc(N2CCN(C(=O)Nc3ncccc3C#N)CC2)cc1 [Example 426, 4-{4-[3-(2-methoxy-3-methyl-phenyl)-ureido]-phenyl}-piperazine-1-carboxylic acid(3-cyano-pyridin-2-yl)-amide] | ≥ 50 |
| O=C(Nc1ccc(N2CCN(C(=O)Nc3ccc(OCCO)cc3C(F)(F)F)CC2)cc1)Nc1nc(C2CC2)cs1 [Example 428, 4-{4-[3-(4-cyclopropyl-thiazol-2-yl)-ureido]-phenyl}-piperazine-1-carboxylic acid[4-(2-hydroxy-ethoxy)-2-trifluoromethyl-phenyl]-amide] | ≥ 50 |
| COc1ncccc1NC(=O)Nc1ccc(N2CCN(C(=O)Nc3ccc(OCCO)cc3C(F)(F)F)CC2)cc1 [Example 429, 4-{4-[3-(2-methoxy-pyridin-3-yl)-ureido]-phenyl}-piperazine-1-carboxylic acid[4-(2-hydroxy-ethoxy)-2-trifluoromethyl-phenyl]-amide] | ≥ 50 |
| Cc1cccnc1NC(=O)N1CCN(c2ccc(NC(=O)Nc3cccc4c3OCC4)cc2)CC1 [Example 431, 4-{4-[3-(2,3-dihydro-benzofuran-7-yl)-ureido]-phenyl}-piperazine-1-carboxylic acid(3-methyl-pyridin-2-yl)-amide] | ≥ 50 |
| COc1ccc(C)cc1NC(=O)Nc1ccc(N2CCC(C(=O)Nc3ncccc3C)CC2)cc1 [Example 432, 1-{4-[3-(2-methoxy-5-methyl-phenyl)-ureido]-phenyl}-piperidine-4-carboxylic acid(3-methyl-pyridin-2-yl)-amide] | ≥ 50 |
| O=C(Nc1ccc(N2CCN(C(=O)Nc3ccc(OCCO)cc3C(F)(F)F)CC2)cc1)Nc1cccc2c1OCC2 [Example 433, 4-{4-[3-(2,3-dihydro-benzofuran-7-yl)-ureido]-phenyl}-piperazine-1-carboxylic acid[4-(2-hydroxy-ethoxy)-2-trifluoromethyl-phenyl]-amide] | ≥ 50 |
